These are yes or no findings as the source states them, for the method shown. In cells and extracts the contact can be indirect. A result given as binding can be weak or reduced; the word gives no strength. Each block holds one binder with its values, some of them ahead of it.
Tests used:
Test in all cases: co-IP; anti-FLAG agarose IP from lysates of SEL1L-/- HEK293T cells transfected with SEL1L-FLAG variants, blots for endogenous partners; 150 mM NaCl, 0.2% NP-40, 0.1% Triton X-100, 25 mM Tris-HCl pH 7.5, overnight at 4 C
[1] = target: mouse SEL1L S658K-FLAG (mouse)
[2] = target: mouse SEL1L S658P/F668M-FLAG (mouse)
[3] = target: mouse SEL1L F668C-FLAG (mouse)
[4] = target: mouse SEL1L S658D-FLAG (mouse)
[5] = target: mouse SEL1L S658P/F668H-FLAG (mouse)
[6] = target: mouse SEL1L S658P/F668S-FLAG (mouse)
[7] = target: mouse SEL1L F668M-FLAG (mouse)
[8] = target: mouse SEL1L S658P/F668C-FLAG (mouse)
[9] = target: mouse SEL1L F668K-FLAG (mouse)
[10] = target: mouse SEL1L S658P/F668Y-FLAG (mouse)
[11] = target: mouse SEL1L F668W-FLAG (mouse)
[12] = target: mouse SEL1L F668A-FLAG (mouse)
[13] = target: mouse SEL1L S658A-FLAG (mouse)
[14] = target: mouse SEL1L S658P/F668D-FLAG (mouse)
[15] = target: mouse SEL1L F668H-FLAG (mouse)
[16] = target: mouse SEL1L F668N-FLAG (mouse)
[17] = target: mouse SEL1L S658P/F668A-FLAG (mouse)
[18] = target: mouse SEL1L F668S-FLAG (mouse)
[19] = target: mouse SEL1L F668Y-FLAG (mouse)
[20] = target: mouse SEL1L S658P/F668K-FLAG (mouse)
[21] = target: mouse SEL1L F668D-FLAG (mouse)
[22] = target: mouse SEL1L S658P-FLAG (mouse)

binding [1]: binds
binding [2]: binds
binding [3]: binds
binding [4]: binds
binding [5]: binds
binding [6]: binds
binding [7]: binds
binding [8]: binds
binding [9]: binds
binding [10]: binds
binding [11]: binds
binding [12]: binds
binding [13]: binds
binding [14]: binds
binding [15]: binds
binding [16]: binds
binding [17]: binds
binding [18]: binds
binding [19]: binds
binding [20]: binds
binding [21]: binds
B1: OS9 (Osteosarcoma amplified 9), endogenous human (protein, UniProt Q13438 26-667)
chain: GGVGSLNLEELSEMRYGIEILPLPVMGGQSQSSDVVIVSSKYKQRYECRLPAGAIHFQREREEETPAYQGPGIPELLSPMRDAPCLLKTKDWWTYEFCYGRHIQQYHMEDSEIKGEVLYLGYYQSAFDWDDETAKASKQHRLKRYHSQTYGNGSKCDLNGRPREAEVRFLCDEGAGISGDYIDRVDEPLSCSYVLTIRTPRLCPHPLLRPPPSAAPQAILCHPSLQPEEYMAYVQRQADSKQYGDKIIEELQDLGPQVWSETKSGVAPQKMAGASPTKDDSKDSDFWKMLNEPEDQAPGGEEVPAEEQDPSPEAADSASGAPNDFQNNVQVKVIRSPADLIRFIEELKGGTKKGKPNIGQEQPVDDAAEVPQREPEKERGDPERQREMEEEEDEDEDEDEDEDERQLLGEFEKELEGILLPSDRDRLRSEVKAGMERELENIIQETEKELDPDGLKKESERDRAMLALTSTLNKLIKRLEEKQSPELVKKHKKKRVVPKKPPPSPQPTEEDPEHRVRVRVTKLRLGGPNQDLTVLEMKRENPQLKQIEGLVKELLEREGLTAAGKIEIKIVRPWAEGTEEGARWLTDEDTRNLKEIFFNILVPGAEEAQKERQRQKELESNYRRVWGSPGGEGTGDLDEFDF

binding [22]: binds
B2: UBE2J1, endogenous human (enzyme, UniProt Q9Y385 1-318)
chain: METRYNLKSPAVKRLMKEAAELKDPTDHYHAQPLEDNLFEWHFTVRGPPDSDFDGGVYHGRIVLPPEYPMKPPSIILLTANGRFEVGKKICLSISGHHPETWQPSWSIRTALLAIIGFMPTKGEGAIGSLDYTPEERRALAKKSQDFCCEGCGSAMKDVLLPLKSGSDSSQADQEAKELARQISFKAEVNSSGKTISESDLNHSFSLTDLQDDIPTTFQGATASTSYGLQNSSAASFHQPTQPVAKNTSMSPRQRRAQQQSQRRLSTSPDVIQGHQPRDNHTDHGGSAVLIVILTLALAALIFRRIYLANEYIFDFEL

binding [22]: binds
B3: DERL2, endogenous human (protein, UniProt Q9GZP9 1-239)
chain: MAYQSLRLEYLQIPPVSRAYTTACVLTTAAVQLELITPFQLYFNPELIFKHFQIWRLITNFLFFGPVGFNFLFNMIFLYRYCRMLEEGSFRGRTADFVFMFLFGGFLMTLFGLFVSLVFLGQAFTIMLVYVWSRRNPYVRMNFFGLLNFQAPFLPWVLMGFSLLLGNSIIVDLLGIAVGHIYFFLEDVFPNQPGGIRILKTPSILKAIFDTPDEDPNYNPLPEERPGGFAWGEGQRLGG

— paper PMC10873344
